The results in this text go back to PubChem BioAssay AID624405 (Broad Institute, 2012).

Screen size: about 1,900 compounds; about 250 (13%) were called active. Inconclusive results (about 4%) are left out.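 The calls were made as follows: active = fitted curve reaches 40% rescue activity at or below the top valid dose, in every test run; inconclusive = test runs disagree, some active and some inactive; inactive = every run misses the threshold or moves the wrong way.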 Only a part is listed here, and it is no random draw. Potency and affinity values are given separately.

The assay can be described thus: rescue of simvastatin-induced ATP loss – cell-based, C2C12 myotubes, ATP luminescence, cherry pick, dose response (AID 624405).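 Also: myotubes are challenged with simvastatin at 10 µM to lower ATP.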 The following applies: 48 h, scaled: DMSO wells 0, geranylgeraniol wells 100; at 19.5 µM (top of the series) unless noted.
For `C[C@H]1CN([C@@H](C)CO)C(=O)c2cccc(NC(=O)c3ccc(-c4nccs4)cc3)c2O[C@@H]1CN(C)CC1CCCCC1`, the rescue activity (ATP increase) is inactive: 12.4%.

`C[C@H]1CN([C@@H](C)CO)C(=O)c2cccc(NC(=O)C3CCCCC3)c2O[C@H]1CN(C)S(=O)(=O)c1ccc(Cl)cc1`: the rescue activity (ATP increase) is inactive: 25.8%.

`C[C@H](CO)N1C[C@H](C)[C@H](CN(C)Cc2ccc(Cl)c(Cl)c2)Oc2ccc(NS(=O)(=O)c3cn(C)cn3)cc2CC1=O`: the rescue activity (ATP increase) was inactive: 21.2% [at 21 µM].

Take `CCOC(=O)Nc1ccc(C)cc1Br`: the rescue activity (ATP increase) was inactive: 36.3%.

Consider `O=c1oc2cc(OCc3ccc(F)cc3F)ccc2cc1-c1ccccn1`, for which the rescue activity (ATP increase) is inactive: 9.74%.

Consider `COC(=O)c1c(C)oc2ccc(NS(=O)(=O)c3cc(OC)ccc3OC)cc12`, for which the rescue activity (ATP increase) is inactive: -0.6%.

Regarding `C[C@@H]1CN([C@H](C)CO)C(=O)Cc2cc(NC(=O)CCCCCC(=O)Nc3ccccc3N)ccc2O[C@@H]1CN(C)Cc1ccc(C(F)(F)F)cc1`, the rescue activity (ATP increase) was inactive: 11% [at 16 µM].

With `C[C@H](CO)N1C[C@H](C)[C@H](CN(C)C(=O)Nc2cc(F)ccc2F)Oc2cc(C#CC3CC3)ccc2S1(=O)=O`, the rescue activity (ATP increase) was inactive: 31.3%.

Take `c1ccc(Cn2nnnc2CN2CCN(c3ncccn3)CC2)cc1`: the rescue activity (ATP increase) is inactive: -7.32%.

Regarding `O=C(NC1CCCCC1)C1CCN(C(=O)NCc2ccccc2)CC1`, the rescue activity (ATP increase) was inactive: 6.47%.

For `COc1ccc(NC(=O)Nc2ccc3c(c2)C(=O)N([C@H](C)CO)C[C@@H](C)[C@H](CN(C)Cc2ccc(C(F)(F)F)cc2)OCCCC[C@H](C)O3)cc1`, the rescue activity (ATP increase) was inactive: -39.1%.

For the molecule `CSc1nc2nc3c(c(=O)n2[nH]1)CCCC3`, the rescue activity (ATP increase) was inactive: -29.8% [at 10 µM].

Regarding `CCC(CC)c1nnc(NS(=O)(=O)Cc2ccccc2)s1`, the rescue activity (ATP increase) was inactive: 10.8%.

As for `Cc1ccc(-c2[nH][nH]c(=O)c(=O)c2N=Nc2ccccc2)cc1`, the rescue activity (ATP increase) was inactive: 18.7%.

`CCCS(=O)(=O)N1CCCC(C(=O)N2CCN(c3ccccc3)CC2)C1` (stereo unspecified): the rescue activity (ATP increase) was inactive: -9.27%.

With `CCCC(CCC(=O)Nc1ccc(C(=O)OCC)cc1)C(=O)O` (stereo unspecified), the rescue activity (ATP increase) was inactive: 12%.

Turning to `COc1ccc(-c2ccc3n(c2=O)C[C@H]2[C@H](CO)[C@@H](C(=O)N(C)C)N(CC4CCCC4)[C@@H]32)cc1`, the rescue activity (ATP increase) is inactive: -3.83%.

As for `C[C@@H]1CN([C@@H](C)CO)C(=O)c2cccc(NS(C)(=O)=O)c2O[C@H]1CN(C)CC1CCCCC1`, the rescue activity (ATP increase) is inactive: 22.8%.

Turning to `Cc1ccc(S(=O)(=O)NCCN=C(CN2CCCC2)NS(=O)(=O)c2ccc(C)cc2)cc1`, the rescue activity (ATP increase) was inactive: 10.6%.

Turning to `O=C(c1ccccc1)c1ccc(Cn2cc(CCCO)nn2)cc1`, the rescue activity (ATP increase) is inactive: 35.9%.

Turning to `CCOC(=O)CN1CC23C=CC(O2)C(C(=O)NC2CCCCC2)C3C1=O` (stereo unspecified), the rescue activity (ATP increase) is inactive: -14.9%.

For the molecule `Cn1c(N)c(C(=O)COC(=O)C2(c3cccc(F)c3)CCCC2)c(=O)n(C)c1=O`, the rescue activity (ATP increase) is inactive: 3.85%.

Consider `O=C(CC(c1ccccc1)c1ccco1)N1CCOCC1` (stereo unspecified), for which the rescue activity (ATP increase) was inactive: -5.94%.

On to `O=c1c2ccccc2ncn1Cc1nc2ccccc2s1`, for which the rescue activity (ATP increase) was inactive: -11.5%.

`C[C@@H]1CCCCO[C@@H](CN(C)S(=O)(=O)c2ccc(F)cc2)[C@H](C)CN([C@@H](C)CO)C(=O)c2cc(NC(=O)Nc3cccc4ccccc34)ccc2O1`: the rescue activity (ATP increase) is inactive: 33.3%.

Consider `COc1ccc(S(=O)(=O)Nc2ccc3c(c2)CC(=O)N([C@H](C)CO)C[C@H](C)[C@@H](CN(C)Cc2ccc(Oc4ccccc4)cc2)O3)cc1`, for which the rescue activity (ATP increase) is inactive: 8.31%.

In the case of `CCSc1nc2sc3c(c2c(=O)n1-c1ccc(OC)cc1)CCN(C)C3`, the rescue activity (ATP increase) was inactive: 40.1%.

On to `CCOc1ccc(NC(=O)CN(c2ccc(OC)cc2)S(C)(=O)=O)cc1`, for which the rescue activity (ATP increase) was inactive: 7.25%.

In the case of `Cn1c2c(c(=O)n(C)c1=O)CN(Cc1ccc3c(c1)OCO3)CN2`, the rescue activity (ATP increase) was inactive: 38.8%.

With `C[C@@H]1CN([C@@H](C)CO)C(=O)c2cc(NS(C)(=O)=O)ccc2O[C@@H](C)CCCCO[C@H]1CN(C)S(=O)(=O)c1ccc(Cl)cc1`, the rescue activity (ATP increase) is inactive: -2.63%.

Take `O=S(=O)(NCc1csc(-c2cccs2)n1)c1cccc(C(F)(F)F)c1`: the rescue activity (ATP increase) is inactive: 12.9%.

Consider `CCOc1ncnc2c1[nH]c1ccccc12`, for which the rescue activity (ATP increase) is inactive: 13.5%.

Take `C[C@@H]1CCCCO[C@H](CN(C)S(=O)(=O)c2ccc(Cl)cc2)[C@H](C)CN([C@@H](C)CO)C(=O)c2cc(NS(C)(=O)=O)ccc2O1`: the rescue activity (ATP increase) is inactive: 20.4%.

Consider `C[C@@H]1CN([C@H](C)CO)C(=O)c2cccc(NC(=O)c3ccc(-c4nccs4)cc3)c2O[C@@H]1CN(C)C(=O)Nc1ccc(F)cc1`, for which the rescue activity (ATP increase) was inactive: 7.97%.

In the case of `C[C@H]1CCCCO[C@H](CN(C)CC2CCCCC2)[C@@H](C)CN([C@@H](C)CO)C(=O)c2cc(NC(=O)Nc3ccc4c(c3)OCO4)ccc2O1`, the rescue activity (ATP increase) was inactive: -25.4%.

With `CCC(C)[C@H]1COCCS(=O)(=O)N1Cc1ccc(Br)cc1` (stereo partly specified), the rescue activity (ATP increase) is inactive: 3.79%.

As for `Nn1c(SCC(=O)N2CCN(S(=O)(=O)c3ccccc3)CC2)nnc1-c1cccs1`, the rescue activity (ATP increase) is inactive: -6.28%.

As to `O=C1CC(c2cccs2)c2cc3c(cc2N1)OCO3` (stereo unspecified), the rescue activity (ATP increase) is inactive: 19.6%.

Take `C[C@H]1CN([C@@H](C)CO)C(=O)Cc2cc(NC(=O)Nc3ccc4c(c3)OCO4)ccc2O[C@@H]1CN(C)Cc1ccc(Cl)c(Cl)c1`: the rescue activity (ATP increase) was inactive: 17.4%.

In the case of `O=C(C[C@@H]1CC[C@@H]2[C@H](COC[C@H](O)CN2C(=O)c2cc(Cl)cc(Cl)c2)O1)N1CCc2ccccc2C1`, the rescue activity (ATP increase) was inactive: 6.86% [at 10 µM].

With `C[C@@H]1CCCCO[C@@H](CN(C)S(=O)(=O)c2cccs2)[C@H](C)CN([C@@H](C)CO)C(=O)c2cc(NC(=O)Nc3ccc(F)cc3)ccc2O1`, the rescue activity (ATP increase) was inactive: 4.48%.

For the molecule `CN1C[C@@H]2[C@H](c3ccccc31)[C@@H](CO)N2Cc1ccccc1Cl`, the rescue activity (ATP increase) was inactive: -13%.

As to `COc1ccc(NC(=O)N(C)C[C@H]2Oc3c(NC(=O)Nc4cccc5ccccc45)cccc3C(=O)N([C@H](C)CO)C[C@@H]2C)cc1`, the rescue activity (ATP increase) was inactive: -0.819%.

In the case of `COc1ccc(-n2nc3cc(C)c(N)c(Br)c3n2)cc1`, the rescue activity (ATP increase) is inactive: 2.51%.

Regarding `Nc1nc(NCc2c(F)cccc2Cl)nn1-c1ccccc1`, the rescue activity (ATP increase) was inactive: -28.5%.

As for `CCC1(CC)C(=O)NC(=O)NC1=Nc1cccc(OC)c1`, the rescue activity (ATP increase) is inactive: 7.77%.

With `O=C(CCc1ccccc1)Nc1ccc(N2CCOCC2)c(Cl)c1`, the rescue activity (ATP increase) was inactive: -43.2%.

As to `C[C@@H]1CN([C@H](C)CO)C(=O)c2cccc(NC(=O)Nc3ccc4c(c3)OCO4)c2O[C@@H]1CN(C)S(=O)(=O)c1ccc(Cl)cc1`, the rescue activity (ATP increase) was inactive: -5.65%.

`COc1ccc(S(=O)(=O)Nc2ccc3c(c2)C(=O)N([C@H](C)CO)C[C@H](C)[C@@H](CN(C)S(=O)(=O)c2ccc(F)cc2)OCCCC[C@H](C)O3)cc1`: the rescue activity (ATP increase) was inactive: -6.4%.

On to `C[C@@H]1CCCCO[C@@H](CN(C)S(=O)(=O)c2cccs2)[C@@H](C)CN([C@H](C)CO)C(=O)c2cc(NC(=O)Nc3ccc(F)cc3)ccc2O1`, for which the rescue activity (ATP increase) is inactive: -23.7%.

For `CCN(CC)C(=O)c1ccc(NS(=O)(=O)c2ccccc2)cc1`, the rescue activity (ATP increase) was inactive: 0.963%.

With `C[C@@H]1CN([C@@H](C)CO)C(=O)Cc2cc(N(C)C)ccc2O[C@H]1CN(C)Cc1ccc(C(F)(F)F)cc1`, the rescue activity (ATP increase) is inactive: -0.166%.

On to `O=C(C[C@H]1CC[C@H]2[C@@H](COC[C@H](O)CN2Cc2ccc(Oc3ccccc3)cc2)O1)N1CCCCC1`, for which the rescue activity (ATP increase) was inactive: -0.632%.

Turning to `Cc1noc(C)c1S(=O)(=O)Nc1cccc2c1O[C@H](CN(C)C(=O)Nc1ccccc1)[C@H](C)CN([C@@H](C)CO)C2=O`, the rescue activity (ATP increase) is inactive: -7.69% [at 21 µM].

`O=C(NCc1ccncc1)Nc1ccccc1Cl`: the rescue activity (ATP increase) was inactive: 3.84%.

As to `CN1C[C@H]2[C@@H](c3ccccc31)[C@H](CO)N2Cc1ccccc1`, the rescue activity (ATP increase) was inactive: 1.69%.

Turning to `COc1cc(CCC(=O)OCc2nnc(-c3ccccc3)o2)cc(OC)c1OC`, the rescue activity (ATP increase) was inactive: 71.2%.

For `CN1C[C@H]2[C@@H](c3ccccc31)[C@@H](CO)N2Cc1ccccc1Cl`, the rescue activity (ATP increase) was inactive: 12.6%.

For the molecule `COc1ccc(-c2n[nH]c(C)c2-c2cc(OC)ccc2O)cc1`, the rescue activity (ATP increase) was inactive: 7.92%.

For `CN1CCN(c2ccc(NC(=S)NC(=O)c3cccc4c(Br)cccc34)cc2)CC1`, the rescue activity (ATP increase) was inactive: 12.4%.

With `CC(C)C[C@@H](CO)N(Cc1ccccc1)S(=O)(=O)N(Cc1ccccc1)[C@H](CO)CC(C)C`, the rescue activity (ATP increase) is inactive: -56.9%.

`C[C@@H]1CCCCO[C@H](CN(C)S(=O)(=O)c2ccc(F)cc2)[C@H](C)CN([C@@H](C)CO)C(=O)c2cc(NS(C)(=O)=O)ccc2O1`: the rescue activity (ATP increase) is inactive: -17.7%.

Take `C[C@H](CO)N1C[C@H](C)[C@H](CN(C)C(=O)NC2CCCCC2)OCCCC[C@H](C)Oc2ccc(NC(=O)Nc3cccc4ccccc34)cc2C1=O`: the rescue activity (ATP increase) is inactive: 10%.

For the molecule `Clc1ccc(Cn2ncc3c(N4CCCCC4)ncnc32)c(Cl)c1`, the rescue activity (ATP increase) was inactive: 27.3%.

For the molecule `C[C@H]1CN([C@@H](C)CO)C(=O)c2cccc(NC(=O)Nc3ccc4c(c3)OCO4)c2O[C@H]1CN(C)S(=O)(=O)c1cccs1`, the rescue activity (ATP increase) is inactive: 14.8%.

Regarding `Cc1noc(C)c1NC(=O)Nc1ccc2c(c1)C(=O)N([C@H](C)CO)C[C@@H](C)[C@H](CN(C)C(=O)Nc1cccc3ccccc13)O2`, the rescue activity (ATP increase) is inactive: 14%.

For the molecule `CCOc1ccc(Br)cc1-c1noc(-c2cccs2)n1`, the rescue activity (ATP increase) was inactive: 34.4%.

`Cc1ccc(S(=O)(=O)Nc2ccc3c(c2)C(=O)N([C@@H](C)CO)C[C@H](C)[C@H](CN(C)Cc2ccc(C(F)(F)F)cc2)O3)cc1`: the rescue activity (ATP increase) is inactive: 28.9%.

`COc1ccc(CN2[C@@H](CO)[C@@H]3c4ccccc4NC[C@@H]32)cc1`: the rescue activity (ATP increase) is inactive: -4.08% [at 21 µM].

With `Cc1cccc(NC(=O)c2ccccc2C(=O)O)c1`, the rescue activity (ATP increase) is inactive: -3.2%.

`O=C(NCc1ccco1)C(c1ccccc1)N(C(=O)Cc1cccs1)c1ccccc1` (stereo unspecified): the rescue activity (ATP increase) was inactive: -1.07% [at 10 µM].
